# Reference: the supplement of paper PMC10849652
# Amino acid sequences for entries named in this document (tags omitted). A change or cut given only in a name is not applied to a line headed by its entry.
# UniProt Q9H4I9: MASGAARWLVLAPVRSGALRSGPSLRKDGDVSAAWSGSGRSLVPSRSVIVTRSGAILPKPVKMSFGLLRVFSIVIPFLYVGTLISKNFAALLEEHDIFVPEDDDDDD
# UniProt Q07617: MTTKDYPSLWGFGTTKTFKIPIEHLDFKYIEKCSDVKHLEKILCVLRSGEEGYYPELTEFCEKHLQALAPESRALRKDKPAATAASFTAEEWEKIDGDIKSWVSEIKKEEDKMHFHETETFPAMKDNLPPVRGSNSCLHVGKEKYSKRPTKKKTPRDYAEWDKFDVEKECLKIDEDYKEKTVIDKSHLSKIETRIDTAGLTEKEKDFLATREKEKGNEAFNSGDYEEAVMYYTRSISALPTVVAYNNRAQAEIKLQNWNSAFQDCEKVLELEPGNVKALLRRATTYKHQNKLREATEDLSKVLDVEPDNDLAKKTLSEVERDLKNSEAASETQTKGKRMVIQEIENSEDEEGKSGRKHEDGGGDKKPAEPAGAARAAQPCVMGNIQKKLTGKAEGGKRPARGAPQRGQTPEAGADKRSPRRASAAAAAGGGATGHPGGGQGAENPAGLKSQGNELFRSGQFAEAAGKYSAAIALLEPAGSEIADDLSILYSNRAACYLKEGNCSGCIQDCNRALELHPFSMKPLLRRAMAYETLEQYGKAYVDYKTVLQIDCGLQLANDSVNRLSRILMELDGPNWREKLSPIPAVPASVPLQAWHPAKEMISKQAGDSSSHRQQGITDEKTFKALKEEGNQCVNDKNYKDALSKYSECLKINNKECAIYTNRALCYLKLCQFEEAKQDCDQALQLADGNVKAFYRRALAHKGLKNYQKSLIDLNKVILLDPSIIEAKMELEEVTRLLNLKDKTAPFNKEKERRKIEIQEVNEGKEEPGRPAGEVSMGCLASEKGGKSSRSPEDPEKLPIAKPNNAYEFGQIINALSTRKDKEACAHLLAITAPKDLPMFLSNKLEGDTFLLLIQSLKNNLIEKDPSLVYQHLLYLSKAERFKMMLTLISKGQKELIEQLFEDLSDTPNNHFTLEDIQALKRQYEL
# UniProt Q7Z3B0: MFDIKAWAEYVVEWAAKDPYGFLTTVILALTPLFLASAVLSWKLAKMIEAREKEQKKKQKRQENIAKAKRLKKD
# UniProt Q9H7B4: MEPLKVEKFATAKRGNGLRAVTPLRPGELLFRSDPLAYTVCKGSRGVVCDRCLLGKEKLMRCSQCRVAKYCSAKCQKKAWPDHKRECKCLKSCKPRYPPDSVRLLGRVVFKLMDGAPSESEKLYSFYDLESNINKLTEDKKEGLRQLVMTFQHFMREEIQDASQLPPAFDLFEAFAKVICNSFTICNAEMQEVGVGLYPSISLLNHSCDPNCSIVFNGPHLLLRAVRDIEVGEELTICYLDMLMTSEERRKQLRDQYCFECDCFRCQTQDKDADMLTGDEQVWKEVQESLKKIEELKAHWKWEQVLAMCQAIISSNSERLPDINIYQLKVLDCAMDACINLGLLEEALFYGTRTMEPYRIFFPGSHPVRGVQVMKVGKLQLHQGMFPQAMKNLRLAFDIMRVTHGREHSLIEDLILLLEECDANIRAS
# UniProt Q53HV7: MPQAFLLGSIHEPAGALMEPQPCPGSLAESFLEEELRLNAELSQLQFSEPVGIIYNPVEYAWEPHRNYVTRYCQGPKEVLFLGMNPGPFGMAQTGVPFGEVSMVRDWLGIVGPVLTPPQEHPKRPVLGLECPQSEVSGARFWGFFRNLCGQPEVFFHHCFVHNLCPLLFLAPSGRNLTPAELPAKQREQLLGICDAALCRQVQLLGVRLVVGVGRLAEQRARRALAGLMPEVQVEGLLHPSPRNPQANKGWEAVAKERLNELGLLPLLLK
# UniProt Q86T20: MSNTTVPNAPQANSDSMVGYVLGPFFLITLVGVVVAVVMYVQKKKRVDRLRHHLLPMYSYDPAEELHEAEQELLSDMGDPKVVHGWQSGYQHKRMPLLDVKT
# UniProt Q8NDV3: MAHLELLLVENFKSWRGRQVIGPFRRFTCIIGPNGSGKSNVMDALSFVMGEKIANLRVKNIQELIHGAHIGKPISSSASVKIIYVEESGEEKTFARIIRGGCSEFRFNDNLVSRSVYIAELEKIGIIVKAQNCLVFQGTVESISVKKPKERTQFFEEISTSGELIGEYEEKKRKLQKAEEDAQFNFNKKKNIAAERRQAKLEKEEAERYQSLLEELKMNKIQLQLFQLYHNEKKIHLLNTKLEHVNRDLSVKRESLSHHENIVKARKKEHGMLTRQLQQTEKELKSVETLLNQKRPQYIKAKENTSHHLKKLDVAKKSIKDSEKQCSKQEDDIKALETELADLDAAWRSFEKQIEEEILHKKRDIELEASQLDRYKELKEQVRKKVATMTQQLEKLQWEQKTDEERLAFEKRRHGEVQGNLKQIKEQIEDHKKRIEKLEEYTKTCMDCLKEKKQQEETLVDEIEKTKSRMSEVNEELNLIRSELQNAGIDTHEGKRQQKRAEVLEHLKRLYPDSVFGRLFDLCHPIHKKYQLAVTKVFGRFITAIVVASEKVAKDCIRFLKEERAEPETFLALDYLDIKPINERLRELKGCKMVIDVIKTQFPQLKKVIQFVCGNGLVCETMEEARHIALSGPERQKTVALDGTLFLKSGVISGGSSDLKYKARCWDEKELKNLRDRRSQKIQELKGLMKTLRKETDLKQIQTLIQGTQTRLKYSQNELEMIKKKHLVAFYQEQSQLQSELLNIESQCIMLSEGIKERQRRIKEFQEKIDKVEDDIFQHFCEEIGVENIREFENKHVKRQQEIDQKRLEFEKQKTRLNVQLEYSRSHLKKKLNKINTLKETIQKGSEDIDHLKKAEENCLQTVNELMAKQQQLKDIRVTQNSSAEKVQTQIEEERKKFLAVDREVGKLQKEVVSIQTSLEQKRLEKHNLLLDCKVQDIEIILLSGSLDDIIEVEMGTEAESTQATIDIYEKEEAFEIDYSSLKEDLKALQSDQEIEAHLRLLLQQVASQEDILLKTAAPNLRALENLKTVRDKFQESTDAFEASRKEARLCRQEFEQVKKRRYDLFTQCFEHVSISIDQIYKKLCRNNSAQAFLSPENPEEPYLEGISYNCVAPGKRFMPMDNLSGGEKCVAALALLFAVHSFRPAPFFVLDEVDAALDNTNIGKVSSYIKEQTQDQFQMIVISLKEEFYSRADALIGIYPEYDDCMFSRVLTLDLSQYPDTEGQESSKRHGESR
# UniProt O95149, whole entry, looked up: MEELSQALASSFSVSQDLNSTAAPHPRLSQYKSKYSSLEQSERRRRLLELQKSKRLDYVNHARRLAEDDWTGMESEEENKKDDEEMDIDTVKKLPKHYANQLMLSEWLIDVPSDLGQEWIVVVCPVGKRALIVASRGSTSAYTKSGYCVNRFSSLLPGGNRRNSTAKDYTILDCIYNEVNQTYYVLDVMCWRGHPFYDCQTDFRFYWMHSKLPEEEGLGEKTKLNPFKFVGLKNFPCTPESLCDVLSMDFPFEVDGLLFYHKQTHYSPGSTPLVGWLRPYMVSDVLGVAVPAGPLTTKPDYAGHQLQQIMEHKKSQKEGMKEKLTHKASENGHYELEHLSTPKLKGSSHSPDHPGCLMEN
# UniProt Q8N5G0: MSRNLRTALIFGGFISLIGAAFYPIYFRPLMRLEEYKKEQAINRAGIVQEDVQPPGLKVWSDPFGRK
# UniProt O60749: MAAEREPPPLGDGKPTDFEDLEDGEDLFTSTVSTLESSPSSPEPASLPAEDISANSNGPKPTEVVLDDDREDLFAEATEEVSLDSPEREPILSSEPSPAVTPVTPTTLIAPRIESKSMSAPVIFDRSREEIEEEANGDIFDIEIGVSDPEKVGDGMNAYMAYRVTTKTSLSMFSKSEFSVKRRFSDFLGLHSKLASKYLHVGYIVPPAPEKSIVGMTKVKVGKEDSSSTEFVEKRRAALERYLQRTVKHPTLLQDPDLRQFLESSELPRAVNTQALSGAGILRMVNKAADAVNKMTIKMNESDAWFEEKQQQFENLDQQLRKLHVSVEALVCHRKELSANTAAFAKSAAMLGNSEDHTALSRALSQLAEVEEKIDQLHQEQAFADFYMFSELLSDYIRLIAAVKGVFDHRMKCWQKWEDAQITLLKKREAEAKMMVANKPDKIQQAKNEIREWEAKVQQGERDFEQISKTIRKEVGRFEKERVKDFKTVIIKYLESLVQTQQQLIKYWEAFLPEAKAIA
# UniProt O60906: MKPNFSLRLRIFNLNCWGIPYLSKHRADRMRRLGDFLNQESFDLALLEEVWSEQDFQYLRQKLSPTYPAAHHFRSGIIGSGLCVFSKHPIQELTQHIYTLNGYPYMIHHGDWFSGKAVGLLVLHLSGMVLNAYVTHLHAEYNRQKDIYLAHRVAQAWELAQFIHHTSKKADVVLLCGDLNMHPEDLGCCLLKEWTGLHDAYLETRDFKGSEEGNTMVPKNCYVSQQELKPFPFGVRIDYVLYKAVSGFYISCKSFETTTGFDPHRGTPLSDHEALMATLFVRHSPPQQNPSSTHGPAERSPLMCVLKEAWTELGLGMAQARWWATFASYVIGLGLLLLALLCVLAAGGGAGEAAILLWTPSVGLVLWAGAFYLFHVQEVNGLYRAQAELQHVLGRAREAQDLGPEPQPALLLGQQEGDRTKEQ
# The other results are listed elsewhere or left out.
# Legend:
# Assay in all cases: log2 fold change, soluble protein after heating vs DMSO (PISA); higher = thermal stabilisation; K562 lysate, 10 uM; active = over 0.2 and 3.5 SD of the protein, either way, in both replicates (recomputed)
# [1] = compound: CS(=O)(=O)CCNCc1ccc(-c2ccc3ncnc(Nc4ccc(OCc5cccc(F)c5)c(Cl)c4)c3c2)o1 [lapatinib]
# Procedure, shortened: (§1)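 Values give the log-two fold change in thermal stability against solvent controls, from duplicates. Crude K562 extract at 1 mg/mL protein, made by dounce homogenisation in PBS pH 7.4 with 1 mM MgCl2, was treated with 10 μM compound for 30 min. After 3 min heating across 48°C-58°C, aliquots were pooled, adjusted to 0.5% NP-40 at 4°C and centrifuged at 21,000xg for 90 min. The supernatant was measured by TMTpro 16plex LC-MS/MS with channel sums equalised.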
# [2] = compound: CS(=O)(=O)N1CCN(Cc2cc3nc(-c4cccc5[nH]ncc45)nc(N4CCOCC4)c3s2)CC1 [pictilisib]
# Procedure, shortened: as §1
# [3] = compound: C[C@H](C1=CC=C(C=C1)C(=O)NC2=C3C=CNC3=NC=C2)N
# Procedure, shortened: as §1
# [4] = compound: C[C@H](Nc1ncnc2nc[nH]c12)c1cc2cccc(Cl)c2c(=O)n1-c1ccccc1 [duvelisib]
# Procedure, shortened: as §1
# [5] = compound: Cc1cc(Nc2cc(CN3CCOCC3)c3nc(C)c(Cc4ccc(Cl)cc4F)n3n2)n[nH]1 [gandotinib]
# Procedure, shortened: as §1
# [6] = compound: Cc1ccc(NC(=O)c2ccc(CN3CC[C@H](N(C)C)C3)c(C(F)(F)F)c2)cc1Nc1nccc(-c2cncnc2)n1 [bafetinib]
# Procedure, shortened: as §1
# [7] = compound: Cc1cccc(CC(=O)N2CCc3c2ccc(-c2cn(C)c4ncnc(N)c24)c3F)n1
# Procedure, shortened: as §1
# [8] = compound: Cc1nc(Nc2ncc(C(=O)Nc3c(C)cccc3Cl)s2)cc(N2CCN(CCO)CC2)n1 [dasatinib]
# Procedure, shortened: as §1
# [9] = compound: Cn1cc(-c2ccc3c(c2)CCN3C(=O)Cc2cccc(C(F)(F)F)c2)c2c(N)ncnc21
# Procedure, shortened: as §1
# [10] = compound: NC(=O)c1cnc(N[C@@H]2CCCC[C@@H]2N)nc1Nc1cccc(-n2nccn2)c1
# Procedure, shortened: as §1
# [11] = compound: NC1(c2ccc(-c3nc4ccn5c(=O)[nH]nc5c4cc3-c3ccccc3)cc2)CCC1
# Procedure, shortened: as §1
# [12] = compound: C[C@@H](Oc1cc(-c2cnn(C3CCNCC3)c2)cnc1N)c1c(Cl)ccc(F)c1Cl [crizotinib]
# Procedure, shortened: as §1
# [13] = compound: Cc1ccc(-n2nc(C(C)(C)C)cc2NC(=O)Nc2ccc(OCCN3CCOCC3)c3ccccc23)cc1 [doramapimod]
# Procedure, shortened: as §1
# [14] = compound: Cn1cc(CNCC2CCN(c3ncc(C(=O)NO)cn3)CC2)c2ccccc21 [quisinostat]
# Procedure, shortened: as §1
# [15] = compound: NC(=O)Nc1cc(-c2cccc(F)c2)sc1C(=O)N[C@H]1CCCNC1
# Procedure, shortened: as §1
# [16] = compound: Cc1cc(Nc2cc(N3CCN(C)CC3)nc(Sc3ccc(NC(=O)C4CC4)cc3)n2)n[nH]1 [tozasertib]
# Procedure, shortened: as §1
# [17] = compound: Cc1cn(-c2cc(NC(=O)c3ccc(C)c(Nc4nccc(-c5cccnc5)n4)c3)cc(C(F)(F)F)c2)cn1 [nilotinib]
# Procedure, shortened: as §1
# [18] = compound: Cc1nc(Nc2n[nH]c3c2CN(C(=O)N[C@H](CN(C)C)c2ccccc2)C3(C)C)c2sccc2n1
# Procedure, shortened: as §1
# [19] = compound: Cc1ncc(-c2ccnc(Nc3ccc(S(C)(=O)=O)cc3)n2)n1C(C)C
# Procedure, shortened: as §1
# [20] = compound: Cn1cncc1[C@@](N)(c1ccc(Cl)cc1)c1ccc2c(c1)c(-c1cccc(Cl)c1)cc(=O)n2C [tipifarnib]
# Procedure, shortened: as §1
Target,log2 fold change [1],log2 fold change [2],log2 fold change [3],log2 fold change [4],log2 fold change [5],log2 fold change [6],log2 fold change [7],log2 fold change [8],log2 fold change [9],log2 fold change [10],log2 fold change [11],log2 fold change [12],log2 fold change [13],log2 fold change [14],log2 fold change [15],log2 fold change [16],log2 fold change [17],log2 fold change [18],log2 fold change [19],log2 fold change [20]
SMDT1 (UniProt Q9H4I9),inactive: -0.069,inactive: 0.036,inactive: -0.075,inactive: -0.013,inactive: 0.04,inactive: -0.075,inactive: 0.08,inactive: 0.006,inactive: 0.022,inactive: -0.087,inactive: 0.072,–,–,–,–,–,–,–,–,–
SPAG1 (UniProt Q07617),inactive: -0.058,inactive: 0.17,–,–,–,inactive: -0.265,–,–,–,inactive: 0.164,–,inactive: 0,inactive: -0.025,inactive: -0.037,inactive: 0.007,–,–,–,–,–
SMIM15 (UniProt Q7Z3B0),inactive: -0.042,–,inactive: -0.042,inactive: 0.063,inactive: 0.019,–,inactive: -0.044,inactive: -0.037,inactive: -0.199,inactive: -0.025,inactive: -0.027,inactive: 0.036,inactive: -0.041,inactive: 0.017,inactive: 0.036,inactive: -0.039,inactive: 0.109,inactive: -0.15,inactive: 0.065,inactive: -0.078
SMYD3 (UniProt Q9H7B4),inactive: 0.017,inactive: -0.018,–,inactive: 0.062,–,inactive: -0.062,–,inactive: -0.101,inactive: -0.029,inactive: 0.036,inactive: -0.051,inactive: -0.146,inactive: 0.053,inactive: -0.056,inactive: 0.038,inactive: 0.023,inactive: 0.004,inactive: 0.022,inactive: 0.01,inactive: 0.031
SMUG1 (UniProt Q53HV7),inactive: -0.072,inactive: -0.068,inactive: 0.038,inactive: -0.014,inactive: 0.076,inactive: 0.023,inactive: -0.046,inactive: 0.051,inactive: -0.018,inactive: 0.03,inactive: 0.001,–,–,–,–,inactive: 0.046,inactive: -0.031,inactive: 0.003,inactive: -0.064,inactive: -0.05
SMIM29 (UniProt Q86T20),inactive: -0.057,–,–,–,–,–,–,–,–,inactive: 0.011,–,–,–,–,–,–,–,–,–,–
SMC1B isoform 3 (UniProt Q8NDV3),inactive: 0,inactive: -0.037,–,inactive: 0.015,–,inactive: -0.093,–,inactive: -0.004,inactive: 0.016,inactive: -0.005,inactive: -0.055,inactive: -0.019,inactive: -0.036,inactive: 0.004,inactive: -0.014,inactive: 0.26,inactive: 0.022,inactive: -0.041,inactive: 0.023,inactive: 0.008
SNRPN isoform 2 (UniProt P63162),inactive: -0.003,–,inactive: 0.097,–,inactive: 0.093,–,inactive: -0.124,–,–,inactive: 0.1,inactive: -0.029,inactive: -0.075,inactive: -0.021,inactive: -0.025,inactive: 0.107,inactive: 0.025,–,–,–,–
SNUPN (UniProt O95149),inactive: 0.026,inactive: -0.083,inactive: -0.009,–,inactive: -0.036,inactive: -0.061,inactive: 0.006,–,–,inactive: -0.115,active: -0.482,inactive: -0.03,inactive: -0.002,inactive: 0.128,inactive: 0.042,inactive: 0.023,inactive: -0.007,inactive: -0.013,inactive: 0.005,inactive: -0.015
SMIM20 isoform 2 (UniProt Q8N5G0),inactive: 0.033,inactive: -0.066,inactive: 0.121,inactive: -0.075,inactive: -0.12,inactive: 0.041,inactive: -0.037,inactive: 0.086,inactive: -0.005,inactive: -0.036,inactive: -0.285,inactive: -0.062,inactive: 0.018,inactive: 0.089,inactive: 0.045,–,inactive: 0.032,inactive: 0.035,inactive: 0.052,inactive: 0.067
SNX2 isoform 2 (UniProt O60749),inactive: -0.082,inactive: -0.083,–,inactive: -0.045,–,inactive: -0.086,–,inactive: -0.077,inactive: -0.011,inactive: -0.05,inactive: -0.088,inactive: -0.172,inactive: -0.111,inactive: -0.298,inactive: 0.099,inactive: -0.038,inactive: 0.129,inactive: -0.06,inactive: 0.247,inactive: 0.01
SMPD2 (UniProt O60906),inactive: 0.015,–,inactive: 0.106,inactive: 0.107,inactive: -0.051,–,inactive: 0.03,inactive: -0.169,inactive: -0.102,inactive: 0.029,inactive: 0.069,–,–,–,–,inactive: -0.031,–,–,–,–
